{"source": "patent US7371829B2", "about": "“Haptens, immunogens, antibodies and conjugates to ketamine and its metabolites” (Randox Laboratories Limited, priority 2002, dated 2008)", "tested_on": "antiserum raised to immunogen C (hapten C-BSA), IgG fraction", "experiment": "Competitive ELISA microtiter plate assay for ketamine and norketamine (conjugate A, hapten A-HRP, as detection reagent)", "type": "binding, sheep", "procedure": "An aqueous solution of the immunogen prepared in Example 10 was formulated with Freund's Complete Adjuvant (FCA) to form an emulsion consisting of 4 mg/ml immunogen in 50% (v/v) FCA. Three sheep were immunised with this emulsion (1° immunisation), 0.25 ml being subcutaneously injected at each of four sites in the flank of each animal. The next immunisation (boost 1) contained 2 mg/ml immunogen and subsequent immunizations (boosts 2 to 11) contained 1 mg/ml immunogen. All boosts were emulsified in 50% (v/v) Freund's Incomplete Adjuvant (FIA) and were administered in the same manner as the 1° immunisation, at monthly intervals for 1 year. Blood sampling took place 7 to 14 days after each boost. Each sample was processed to produce antiserum, which was further purified by caprylic acid and ammonium sulfate precipitation to yield an immunoglobulin G (IgG) fraction. The IgG fraction was evaluated by competitive ELISA microtiter plate assay, as described in Example 16 below.\nThe wells of an enhanced binding 96 well polystyrene microtiter plate were coated with the IgG fraction of the antiserum raised to immunogen C (hapten C-BSA) (Example 10), diluted in 10 mM Tris, pH 8.5 (125 μl/well). The appropriate antibody coating dilution was determined using standard ELISA checkerboard techniques. The plate was incubated for 2 hours at 37° C., washed 4 times with Tris buffered saline containing Tween 20 (TBST) and tapped dry. Standard solutions of ketamine and norketamine were prepared in TBST at 0, 0.1, 0.5, 1, 5, 25, 100 and 500 ng/ml and 50 μl of each was added to the appropriate wells (FIG. 4). 75 μl of conjugate A (hapten A-HRP) (Example 11), diluted in Tris buffer (pH 7.2) containing EDTA, D-mannitol, sucrose, thimerosal and BSA, was added to each of the wells, as shown in FIG. 4. The appropriate dilution of conjugate was also determined using standard ELISA checkerboard techniques. The plate was incubated at 37° C. for 2 hours. Excess unbound conjugate was removed by washing 6 times over a 10 minute period with TBST.\n125 μl of tetramethylbenzidine (TMB) substrate solution was added to each well of the plate that was then incubated for 15 to 20 minutes in the dark at room temperature. The reaction was terminated by addition of 125 μl 0.2M H2SO4 to each well. The absorbance was then measured at 450 nm using a microtiter plate reader.\nIn order to determine the specificity of the competitive ELISA for ketamine and norketamine, standard solutions were prepared in TBST at 0, 0.1, 0.5, 1, 5, 25, 100 and 500 ng/ml. Employing each series of standards in the ketamine competitive ELISA, calibration curves were generated and these were used to determine the cross-reactivity of the immunoassay with these substances. The results of this study are presented in Table 2, cross-reactivity of potential cross-reactants phencyclidine and dextromethorphan being calculated according to the following formula: % CR=IC50, Ketamine/IC50, CR×100\nWhere %CR is the percentage cross-reactivity, IC50, Ketamine is the concentration of ketamine that causes 50% displacement of signal and IC50, CR is the concentration of potential cross-reactant that causes 50% displacement of signal.", "key": {"[1]": {"settings": "standard concentration 0.1 ng/ml"}, "[2]": {"settings": "standard concentration 0.5 ng/ml"}, "[3]": {"settings": "standard concentration 25 ng/ml"}, "[4]": {"settings": "standard concentration 100 ng/ml"}, "[5]": {"settings": "standard concentration 500 ng/ml"}}, "data": [{"smiles": "CNC1(c2ccccc2Cl)CCCCC1=O", "note": "(racemic) [Ketamine, (±)-2-(o-chlorophenyl)-2-(methylamino) cyclohexanone]", "values": [{"measurement": "A450 (absorbance at 450 nm)", "setting": "[1]", "result": 2.02}, {"measurement": "A450 (absorbance at 450 nm)", "setting": "[2]", "result": 1.817}, {"measurement": "A450 (absorbance at 450 nm)", "setting": "standard concentration 1 ng/ml", "result": 1.489}, {"measurement": "A450 (absorbance at 450 nm)", "setting": "standard concentration 5 ng/ml", "result": 0.935}, {"measurement": "A450 (absorbance at 450 nm)", "setting": "[3]", "result": 0.548}, {"measurement": "A450 (absorbance at 450 nm)", "setting": "[4]", "result": 0.404}, {"measurement": "A450 (absorbance at 450 nm)", "setting": "[5]", "result": 0.254}]}, {"smiles": "NC1(c2ccccc2Cl)CCCCC1=O", "note": "(centres unmarked) [Norketamine, [2-amino-2-(o-chlorophenyl)]cyclohexanone]", "values": [{"measurement": "A450 (absorbance at 450 nm)", "setting": "[1]", "result": 1.843}, {"measurement": "A450 (absorbance at 450 nm)", "setting": "[2]", "result": 1.416}, {"measurement": "A450 (absorbance at 450 nm)", "setting": "standard concentration 1 ng/ml", "result": 1.368}, {"measurement": "A450 (absorbance at 450 nm)", "setting": "standard concentration 5 ng/ml", "result": 0.961}, {"measurement": "A450 (absorbance at 450 nm)", "setting": "[3]", "result": 0.482}, {"measurement": "A450 (absorbance at 450 nm)", "setting": "[4]", "result": 0.320}, {"measurement": "A450 (absorbance at 450 nm)", "setting": "[5]", "result": 0.222}]}]}
